The record followed here is article PMC3739823, “Structural Guided Scaffold Phage Display Libraries as a Source of Bio-Therapeutics” (PLoS ONE, 2013).

Amino acid sequences for entries named in this document (tags omitted). A change or cut given only in a name is not applied to a line headed by its entry.
UniProt P06756: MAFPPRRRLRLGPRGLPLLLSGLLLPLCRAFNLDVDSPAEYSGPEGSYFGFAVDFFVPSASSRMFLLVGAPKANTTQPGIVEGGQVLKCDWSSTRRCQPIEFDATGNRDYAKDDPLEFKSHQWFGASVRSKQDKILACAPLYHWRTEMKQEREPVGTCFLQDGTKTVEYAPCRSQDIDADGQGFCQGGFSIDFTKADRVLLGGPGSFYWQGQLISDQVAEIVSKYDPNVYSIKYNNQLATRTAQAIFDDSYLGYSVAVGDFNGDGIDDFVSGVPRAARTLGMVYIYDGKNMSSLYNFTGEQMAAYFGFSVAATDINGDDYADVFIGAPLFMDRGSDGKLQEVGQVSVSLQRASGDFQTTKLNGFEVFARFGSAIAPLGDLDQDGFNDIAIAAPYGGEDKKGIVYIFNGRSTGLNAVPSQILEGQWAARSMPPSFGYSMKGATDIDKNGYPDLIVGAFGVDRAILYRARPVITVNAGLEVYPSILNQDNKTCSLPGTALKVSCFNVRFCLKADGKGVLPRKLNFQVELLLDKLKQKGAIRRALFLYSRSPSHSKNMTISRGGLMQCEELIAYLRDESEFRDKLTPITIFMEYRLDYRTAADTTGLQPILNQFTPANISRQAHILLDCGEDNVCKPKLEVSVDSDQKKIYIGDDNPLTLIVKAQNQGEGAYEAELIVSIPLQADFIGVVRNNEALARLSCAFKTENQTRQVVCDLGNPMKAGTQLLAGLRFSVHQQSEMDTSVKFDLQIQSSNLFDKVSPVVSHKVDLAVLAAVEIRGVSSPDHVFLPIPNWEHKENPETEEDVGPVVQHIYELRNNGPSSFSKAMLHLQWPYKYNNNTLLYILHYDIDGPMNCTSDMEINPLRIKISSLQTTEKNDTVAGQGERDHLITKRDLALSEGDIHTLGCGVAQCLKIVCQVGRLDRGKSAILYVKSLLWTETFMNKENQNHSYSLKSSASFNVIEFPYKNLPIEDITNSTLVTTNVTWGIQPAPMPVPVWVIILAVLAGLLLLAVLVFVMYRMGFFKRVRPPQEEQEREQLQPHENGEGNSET
UniProt P08648: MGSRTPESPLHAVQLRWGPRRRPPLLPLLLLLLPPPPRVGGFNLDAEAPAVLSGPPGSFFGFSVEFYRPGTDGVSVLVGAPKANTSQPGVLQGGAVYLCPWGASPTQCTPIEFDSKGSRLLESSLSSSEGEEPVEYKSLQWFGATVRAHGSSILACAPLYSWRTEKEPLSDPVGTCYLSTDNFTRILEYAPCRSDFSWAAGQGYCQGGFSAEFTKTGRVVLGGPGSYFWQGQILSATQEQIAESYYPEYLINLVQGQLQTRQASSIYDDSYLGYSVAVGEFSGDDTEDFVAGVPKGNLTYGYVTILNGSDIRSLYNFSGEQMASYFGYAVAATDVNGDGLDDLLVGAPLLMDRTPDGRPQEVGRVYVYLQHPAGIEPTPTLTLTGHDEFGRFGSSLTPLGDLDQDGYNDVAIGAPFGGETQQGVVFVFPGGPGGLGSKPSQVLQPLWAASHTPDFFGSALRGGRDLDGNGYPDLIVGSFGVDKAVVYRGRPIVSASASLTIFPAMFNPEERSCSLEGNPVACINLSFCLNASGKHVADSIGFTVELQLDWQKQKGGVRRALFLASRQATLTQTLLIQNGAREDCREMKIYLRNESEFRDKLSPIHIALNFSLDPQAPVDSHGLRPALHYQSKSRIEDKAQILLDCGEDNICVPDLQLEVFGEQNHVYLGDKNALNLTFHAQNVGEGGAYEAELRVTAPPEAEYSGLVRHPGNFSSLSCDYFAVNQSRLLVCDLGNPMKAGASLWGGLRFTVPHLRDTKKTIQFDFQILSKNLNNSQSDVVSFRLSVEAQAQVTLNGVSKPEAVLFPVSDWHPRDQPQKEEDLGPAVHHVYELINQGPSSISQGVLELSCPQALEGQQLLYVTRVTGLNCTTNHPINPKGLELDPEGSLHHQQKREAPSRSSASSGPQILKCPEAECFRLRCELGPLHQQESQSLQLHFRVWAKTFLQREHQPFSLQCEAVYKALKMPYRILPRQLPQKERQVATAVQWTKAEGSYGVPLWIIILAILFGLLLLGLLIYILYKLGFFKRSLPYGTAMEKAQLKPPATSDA

Holding throughout (assay): flow cytometry on cells; only the binder purified
In test [1] the target is integrin αvβ3 on A375Ppuro cells (human (endogenous in A375Ppuro)) (UniProt P06756).
The target in test [2] is integrin αvβ6 on A375Pβ6 cells (human (endogenous in A375Pβ6) | not stated) (UniProt P06756).
For test [3], the target named is integrin αvβ8 on A375Ppuro cells (human (endogenous in A375Ppuro)) (UniProt P06756).
Test [4] has as its target integrin α5β1 on A375Ppuro cells (human (endogenous in A375Ppuro)) (UniProt P08648).
Test [5] addresses integrin αvβ5 on A375Ppuro cells (human (endogenous in A375Ppuro)) (UniProt P06756).

These are yes or no findings as the source states them, for the method shown. Some entries that bind do so weakly or less than the wild type.

B1: D25p, VH-CDR3 derived peptide of D25scFv (peptide)
peptide: EPRGDLRTLAAREKRNFNETLARLQEKGI
modifications: biotin (biotinylated-D25p; position not stated)
With B1, the binding result is “no binding (tested: 1 uM)” in test [1]; “binds” in test [2]; “no binding (tested: 1 uM)” in test [3]; “no binding (tested: 1 uM)” in test [4]; “no binding (tested: 1 uM)” in test [5].
